# Reference: PubChem BioAssay AID819 (Columbia University Molecular Screening Center, 2007)
# Out of some 94,000 compounds screened, about 280 (0.3%) were called active. Inconclusive means that the source gave no clear call. Such entries were picked first, then a sample of the others.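 The calls were made as follows: active = activation above 40%, about the mean plus 3 SD, also judged a hit on visual image review; inconclusive = activation above 40% but not a hit on visual review; inactive = activation not above 40% and no visual hit.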
# Assay: enhancers of NFkB p65 translocation in HUVEC – imaging, IL-1B stimulus, high-content imaging, primary screen (AID 819);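 also: percent activation is computed from the nuclear over cytoplasmic p65 intensity ratio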
# Settings: HUVEC IL-1B NFkB p65 nuclear translocation imaging; at 2 µM; active compounds read high
row,Compound,activation
1,Cc1ccc(-n2c(O)c(C=NC3CCS(=O)(=O)C3)c3ccccc3c2=O)cc1C (stereo not drawn),active: 42.6%
2,Cc1c(/C(O)=C2/C(=O)C(=O)N(CCN3CCOCC3)C2c2cccnc2)cnn1-c1ccccc1 (stereo not drawn),active: 59.6%
3,C=CCSc1nnc(-c2cccnc2)o1,inconclusive: 45.3%
4,COC(=O)c1cc(OC)c(OC)cc1NC(=O)CSc1ccccc1,inconclusive: 64.8%
5,CC1CCN(c2c(NCc3ccc(C(=O)N4CCc5ccccc54)cc3)c(=O)c2=O)CC1,active: 118%
6,COn1c(SC2CCCCC2)nc2ccccc2c1=O,inactive: 7.6%
7,CC(C)c1[nH]nc2c1C(Cc1ccccc1)C(C#N)=C(N)O2 (stereo not drawn),inactive: 3.64%
8,CCNC(=O)c1c(N)sc2c1CCCCC2,inconclusive: 41.8%
9,CCOC(=O)C1C(=O)Nc2nc(C)nn2C1c1ccccc1 (stereo not drawn),active: 83.6%
10,COc1ccc(CN2CCCC2C(=O)Nc2ccc(OC)c(OC)c2)cc1OC (stereo not drawn),inconclusive: 44.8%
11,O=C(Nc1ccc2c(c1)OCO2)Nc1ccc(Cl)cc1Cl,inactive: -6.84%
12,CCn1c(N)c(C(=O)NCc2ccco2)sc1=S,inconclusive: 51.1%
13,COc1ccc(-n2nc(C(=O)N3CCC(C#N)CC3)c3c4ccccc4n(C)c3c2=O)cc1,inconclusive: 42%
14,CCOC(=O)C1=C(C)NC(=O)C(C(N)=O)C12CCCC2 (stereo not drawn),inactive: 9.06%
15,Cc1nnc(SCC(=O)N2CCc3ccccc3C2)s1,inconclusive: 44.1%
16,CC(=C1C(=O)c2ccccc2C1=O)N1CCN(C/C=C/c2ccccc2)CC1,inactive: 27.6%
17,CCCCCCCCC(=O)Nc1cc(C)ccc1OC,inactive: -1.65%
18,CCOC(=O)/C(C#N)=C1/C=CN(C)C(C)=N1,inactive: 2.38%
19,CCC(c1nc2ccccc2c(=O)n1CCCn1ccnc1)N1C(=O)c2ccccc2C1=O (stereo not drawn),inconclusive: 48%
20,Cc1ccc(C(C)C)c(OCC(=O)Nn2c(C)nc3ccccc3c2=O)c1,inactive: -8%
21,CCCCOC(=O)CSC1=C(C#N)C(c2ccc3c(c2)OCO3)CC(=O)N1 (stereo not drawn),inconclusive: 43.6%
22,COCCNC(=O)c1c[nH]c2cc(OC)c(OC)cc2c1=O,inactive: 13.7%
23,CSc1nnc2c(n1)OC(C)N(C(=O)c1ccccc1)c1ccccc1-2 (stereo not drawn),inconclusive: 45.1%
24,CC1(C)CC(=O)CC(=NCC(=O)O)C1,inconclusive: 44.1%

row,Compound,activation
1,O=C(CSc1nnc(-c2ccccc2)n1Cc1ccco1)NCc1ccc2c(c1)OCO2,active: 59.1%
2,Cc1c(N=Cc2ccc[nH]2)c(=O)n(-c2ccccc2)n1C,inconclusive: 41.4%
3,COCCCn1c2nc3ccccc3nc2c2c(=O)n(Cc3ccc(Cl)cc3)cnc21,inconclusive: 51.2%
4,O=C(NC1(C(F)(F)F)Oc2ccccc2O1)N1CCCC1,inconclusive: 41.7%
5,O=C(NCC1CCS(=O)(=O)C1)NCC1CCS(=O)(=O)C1 (stereo not drawn),inconclusive: 41.9%
6,Cc1nn(C)c(C)c1S(=O)(=O)N1CCC(C(=O)NCC2COc3ccccc3O2)CC1 (stereo not drawn),active: 41.6%
7,COc1ccc(N(CC(=O)Nc2ccc(C)c(C)c2)S(=O)(=O)c2c(C)n[nH]c2C)cc1,inconclusive: 62.2%
8,Cc1cccc(NC(=O)CCN2C(=O)C3C4CCC(C4)C3C2=O)c1C (stereo not drawn),inconclusive: 59.8%
9,O=C(Nc1nc(-c2cccs2)cs1)c1ccc(S(=O)(=O)N2CCCC2)cc1,inconclusive: 40%
10,Nc1cc(Cl)ccc1N1CCOCC1,inconclusive: 51.2%
11,O=C1CC(N2CCOCC2)C(=O)N1Cc1ccc(N2CCCC2=O)cc1 (stereo not drawn),inconclusive: 42%
12,COc1cc2c(C(=O)NCc3ccc4c(c3)OCO4)cn(C)c(=O)c2cc1OC,inconclusive: 47.9%
13,COCCCNc1nc2c(c(=O)[nH]c(=O)n2C)n1CC(O)COc1cccc(C)c1 (stereo not drawn),inconclusive: 59.8%
14,CCCCC[n+]1ccn(-c2nc3ccccc3nc2[N-]S(=O)(=O)c2ccc(C)cc2)c1,inactive: -98.5%
15,CC1=C(C(=O)OC2CCCCC2)C(c2ccc(C)o2)C2=C(CC(C)(C)CC2=O)N1 (stereo not drawn),inconclusive: 43%
16,Cc1ccc(NC(=O)C2CCCN2S(=O)(=O)c2cccc3cccnc23)cc1F (stereo not drawn),inconclusive: 51.9%
17,O=C1C(c2ccc(F)cc2)N(C2CCCCC2)C(=O)CN1C1CCCC1 (stereo not drawn),active: 128%
18,CC12CCC(C(=O)NCCCn3ccnc3)(OC1=O)C2(C)C (stereo not drawn),inconclusive: 43.1%
19,Cc1noc(NS(=O)(=O)c2ccc(N/C=C/C(=O)c3ccc4c(c3)OCO4)cc2)c1C,inconclusive: 60.3%
20,CC(C)=C1SC(N2CCN(c3cccc(C(F)(F)F)c3)CC2)=NC1=O,inconclusive: 53%
21,COc1ccc(OC)c(C(c2nnnn2C(C)(C)C)N2CCc3ccccc3C2)c1 (stereo not drawn),inconclusive: 50.6%
22,O=C(Nc1ccc(CN2CCOCC2)cc1)c1cc2ccccn2n1,inconclusive: 55.2%
23,Cc1nc2sccn2c1-c1nc(-c2cc3ccccc3o2)cs1,inconclusive: 54.4%
24,O=C(Cn1cccc1)Nc1ccc(OC(F)(F)F)cc1,inconclusive: 49.5%

# Fetched by compound from the list above:
row,Compound,activation
10,Nc1cc(Cl)ccc1N1CCOCC1,inconclusive: 51.2%
18,CC12CCC(C(=O)NCCCn3ccnc3)(OC1=O)C2(C)C (stereo not drawn),inconclusive: 43.1%
7,COc1ccc(N(CC(=O)Nc2ccc(C)c(C)c2)S(=O)(=O)c2c(C)n[nH]c2C)cc1,inconclusive: 62.2%

# A few values from the list:
# Value of CC1(C)CC(=O)CC(=NCC(=O)O)C1 under activation: inconclusive: 44.1%
# Value of CCOC(=O)C1=C(C)NC(=O)C(C(N)=O)C12CCCC2 (stereo not drawn) under activation: inactive: 9.06%

# Next part:

row,Compound,activation
1,O=C1C2CCCN2C(c2ccccc2F)N1c1ccc(Cl)cc1 (stereo not drawn),inactive: 10.6%
2,CCOC(=O)c1[nH]c(C)c(C(=O)OCC)c1C,inactive: -4.58%
3,CCc1nnc(NC(=O)CSc2nnc(-c3cccnc3)n2CCc2ccccc2)s1,active: 42.7%
4,Cc1ccccc1OCC(=O)Nc1cccc(NC(=O)c2ccco2)c1,inconclusive: 42%
5,CC(NC(=O)COC(=O)CCNC(=O)c1ccco1)C12CC3CC(CC(C3)C1)C2 (stereo not drawn),active: 63.4%
6,CC(C)NS(=O)(=O)c1ccc(CCC(=O)N2CCOCC2)cc1,inconclusive: 47.3%
7,O=S(=O)(c1cccc(S(=O)(=O)N2CCC(Cc3ccccc3)CC2)c1)N1CCOCC1,inconclusive: 41.8%
8,c1ccc(Nc2cc(-c3ccccc3)nc3ncnn23)cc1,inconclusive: 42.6%
9,CC1CCN(CC(=O)N2CCCc3c2c(=O)oc2ccc(OCc4ccccc4)cc32)CC1,inactive: 11.4%
10,CC(/C=N/Nc1nnc2c(n1)[nH]c1ccccc12)=C\c1ccco1,active: 64.6%
11,COc1ccc(C2CC(O)(C(C)(C)O)NO2)cc1 (stereo not drawn),inconclusive: 41.7%
12,O=C1CCCN1CCCn1cnc2c([nH]c3ccc(F)cc32)c1=O,inactive: -8.05%
13,CC(=O)CCCCn1c(=O)c2c(ncn2C)n(C)c1=O,inconclusive: 43.1%
14,Cc1ccc(-c2cc(-c3nnc(SCC(=O)NCC(C)C)n3N)c3ccccc3n2)cc1,active: 42.8%
15,CC(=NCC1CCCO1)C1=C(O)CC(C)(C)CC1=O (stereo not drawn),inconclusive: 43.1%
16,CN(C)/C=C1\C(=O)Nc2ccccc21,inactive: 5.12%
17,COc1ccc2nc(NC(=S)N(C)C)sc2c1,inactive: 5.64%
18,CS(=O)(=O)Nc1ccc2c(c1)C(=O)OC2,active: 57.5%
19,O=C(c1ccc(N2CCCC2=O)cc1)N1CCN(c2ccccc2)CC1,active: 43.5%
20,O=C(COc1ccc(-n2cnnn2)cc1)NCCc1ccc(F)cc1,inconclusive: 40.8%
21,CC1CCCN(S(=O)(=O)c2cc(Cl)ccc2Cl)C1 (stereo not drawn),inactive: 17.3%
22,O=c1c2ccccc2c(-c2ccccc2)nn1Cc1ccc(Cl)cc1,inactive: 24.3%
23,CCOc1ccc(C2=C(C=Nc3c(C)n(C)n(-c4ccccc4)c3=O)C(c3ccc(F)cc3)c3ccccc3O2)cc1 (stereo not drawn),inactive: -5.31%
24,O=C1c2ccccc2C(Nc2ccc(Cl)cn2)N1c1cccnc1 (stereo not drawn),inactive: 16.1%

# A section taken from the entries so far:
row,Compound,activation
1,Cc1ccc(-n2c(O)c(C=NC3CCS(=O)(=O)C3)c3ccccc3c2=O)cc1C (stereo not drawn),active: 42.6%
2,Cc1c(/C(O)=C2/C(=O)C(=O)N(CCN3CCOCC3)C2c2cccnc2)cnn1-c1ccccc1 (stereo not drawn),active: 59.6%

# The listing continues.

row,Compound,activation
1,O=C(CSc1ccccc1)Nc1ccncc1,inconclusive: 46.1%
2,COCCn1nnnc1CN1C2CCCC1CC(NC(C)=O)C2 (stereo not drawn),inconclusive: 45.6%
3,CCOc1ccccc1OCCCCCc1c(C)n[nH]c1C,inconclusive: 50.2%
4,CCOC(=O)CSc1snnc1-c1ccccc1,inactive: 9.44%
5,CCN(CC)CCn1c(O)c(N=O)c2ccccc21,inconclusive: 44.4%
6,CCCCNC(=O)CS(=O)Cc1nc(-c2ccc(C)cc2)oc1C (stereo not drawn),inactive: 3.22%
7,COc1ccc(N(CC(=O)Nc2cc(C)ccc2OC)S(=O)(=O)c2c(C)noc2C)cc1,inconclusive: 61.1%
8,Cc1nc2ccccn2c1C(=O)NCc1cccnc1,inconclusive: 90.2%
9,CCc1ccc(NC(=O)c2cc(C(C)C)on2)cc1,inconclusive: 45%
10,Cc1nc(-c2coc3cc(OCC(=O)O)ccc3c2=O)cs1,inconclusive: 40.6%
11,CCn1c(SCC(=O)c2ccc3ccccc3c2)nnc1-c1cccs1,inconclusive: 67.9%
12,Cc1cc(C)n(-c2nc(-c3cccc(Cl)c3)cs2)n1,inactive: 19.9%
13,Cn1c(=O)oc2cc(S(=O)(=O)N3CCCC(C(=O)Nc4nccs4)C3)ccc21 (stereo not drawn),active: 40.6%
14,Cc1cc(C)c2[nH]c(=O)c(CN(CC3CCCO3)S(=O)(=O)c3ccc4c(c3)OCCO4)cc2c1 (stereo not drawn),inconclusive: 93%
15,O=C(NC(=S)NCCN1CCOCC1)c1ccc(Cl)cc1Cl,inconclusive: 81%
16,CCCOC(=O)CSC1=C(C#N)C(c2ccccc2OCC)C(C#N)C(=O)N1 (stereo not drawn),inconclusive: 56.5%
17,CCn1c(SCC(N)=O)nnc1-c1ccc(OC)c(OC)c1,inconclusive: 56.4%
18,Cc1cccc(N(C)S(=O)(=O)c2ccc3[nH]c(=O)c(=O)[nH]c3c2)c1,inactive: -8.72%
19,O=C(Nc1ccc(Cl)cc1)N1CCN(c2ccccc2)CC1,inconclusive: 42.3%
20,Cc1ccc2c(c1)-c1c(cnn1CC(=O)NC(C)CCc1ccco1)CO2 (stereo not drawn),inconclusive: 61%
21,O=C1CSC(c2cn(-c3ccccc3)nc2-c2cccs2)N1CC1CCCO1 (stereo not drawn),inactive: 7.33%
